Laboratory results from US20120114557A1.
Results are given in words; binding and its absence hold for the method and conditions named. A result given as binding can be weak or reduced; the word gives no strength.

Target: collagen (dried collagen assay; species not stated at the place)
Assay: words in the Langendorff heart example

B1: SEQ ID NO: 144 (peptide)
peptide: GQWTCSGDAYTWHCNYE
modifications: disulfide between the two cysteines (cyclic)
- binding: binds
